Primary screen of a compound library

Source: ChEMBL document CHEMBL3988442, “University of Dundee, Small-Polar-MMV Screening Library” (2021).

Mtb glucose medium: 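Whole-cell growth test on Mycobacterium tuberculosis, read after 3 days in glucose-containing 7H9 medium; the read-out is not stated. Concentration: 50 µM. The record gives no direction; compounds that gave an IC50 in retests scored well above the rest, so higher reads as more growth inhibition. Size under these conditions: about 69,000 compounds, about 760 of them at 50% or above in at least one test.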
Mtb cholesterol medium: 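Phenotypic screen: M. tuberculosis growth, cholesterol and DPPC medium, 4 days; the read-out is not stated. Compounds at 50 µM. Higher reads as more growth inhibition (inferred: compounds with an IC50 in retests scored well above the rest). Size under these conditions: about 69,000 compounds, about 370 of them at 50% or above in at least one test.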

Each number is a percent effect as filed. How 0% and 100% were set is not recorded. Most values in the screen are low, and negative values occur. The compounds are a random part of those screened. Two or more numbers in one place are separate tests of the same structure; such repeats can differ widely.

| compound | Mtb glucose medium | Mtb cholesterol medium |
|---|---|---|
| `O=S(=O)(c1ccccc1F)N1CCC(Oc2cccnn2)CC1` | 7.756 | 3.549 |
| `[H][C@]12CC[C@]([H])(CN(S(=O)(=O)N(C)C)C1)N(Cc1ccc(F)c(F)c1)C2` | -28.68 | -31.15 and -11.26 |
| `CN(C)C(=O)NC1COC2(CCN(C(=O)c3ccc(Cl)cc3)CC2)C1` (centres undefined) | 3.863 | 5.192 |
| `CCCc1noc(CN2CCC(C(=O)Nc3cnn(CC)c3)CC2)n1` | 6.439 | 3.241 |
| `Cc1noc(C)c1C(=O)N1CCCCC1c1cc(C)n2ccnc2n1` (centres undefined) | -7.315 | -3.578 |
| `CC(=O)Nc1ccc(-n2ccc3nc(N4CCCC4)ncc3c2=O)cc1` | 7.488 | -24.77 |
| `CC(C)c1cc(C(=O)N2C[C@@H](C)[C@](O)(C3CC3)C2)[nH]n1` | 0.8868 | -21 |
| `O=C(CN1CCCC(Cn2cncn2)C1)NCc1ccccc1F` (centres undefined) | -8.577 | 9.883 |
| `CCCS(=O)(=O)N1CCC2(CCCC(=O)N2C)CC1` | -3.313 | -11.34 |
| `CN(Cc1cnn(C)c1)C(=O)CN1CCCC1Cn1cncn1` (centres undefined) | -19.98 and 10.26 | -6.9 |
| `CCCS(=O)(=O)N1CCC2(CCCN(Cc3cccc(F)c3F)C2=O)C1` (centres undefined) | 7.649 | 6.283 |
| `O=C(C1CCS(=O)(=O)C1)N1CCC(=Cc2cccc(F)c2)CC1` (centres undefined) | -4.449 and -8.403 | -0.9212 |
| `Cc1cccc(CNc2cc(C3CCCNC3)ccn2)n1.Cl` (centres undefined) | -18.85 | -12.32 and -4.285 |
| `Cc1cccc(NC(=O)[C@@H]2CCCN2Cc2nc(C)c(C)o2)n1` | -4.518 | -2.276 and -15.59 |
| `O=C(O)C(F)(F)F.[H][C@@]12C[C@@H](C)O[C@]1([H])CN(C(=O)c1cc(C)nn1CC)C2` | 11.8 | -2.103 |
| `O=C1c2cnc(N3CCCC3)nc2CN1C1CCS(=O)(=O)C1` (centres undefined) | 26.26 | 2.202 |
| `Cc1ccc(-n2nnc(C(=O)NCC(F)(F)F)c2C2CC2)cc1` | 8.709 | 5.025 |
| `Cc1cnc(N2CCCC(c3ccccc3)C2)nc1-c1ncnn1C` (centres undefined) | 17.76 | 47.91 and 11.89 |
| `CN1CCN(S(=O)(=O)NCC2COc3ccccc3C2)CC1` (centres undefined) | 7.597 | 5.305 |
| `Cc1cc(S(=O)(=O)NC(C)(C)CN)c(F)cc1F.Cl` | 14.54 | 5.53 |
| `Cc1nc(C(=O)N2CCCC(c3ccc4sc(N)nc4n3)C2)co1` (centres undefined) | -6.261 | -3.179 |
| `Cc1cccc(CN(Cc2ccc(C)o2)C2CC(C)(C)NC(C)(C)C2)n1.O=C(O)CC(O)(CC(=O)O)C(=O)O` | -1.19 | -4.624 |
| `Cc1cccc(CN2CCC3(CCN(c4ncccn4)CC3)C2=O)c1.O=C(O)C(F)(F)F` | 19.27 | 17.14 |
| `CCN1CCCC1CN(Cc1cc[nH]n1)CC1CCN(CCOC)CC1` (centres undefined) | 17.45 | 5.992 |
| `COc1cccc(CC(=O)N2CCCC(c3n[nH]c4nccnc34)C2)c1` (centres undefined) | 34.29 | 2.918 |
| `O=C(Cc1ccsc1)NCC1Cn2nnc(-c3ccoc3)c2CO1` (centres undefined) | -9.94 and -21.45 | -9.898 |
| `O=C(Nc1cc(-c2ccncc2)no1)C1CCCCC1` | 16.21 | 16.02 |
| `CCN(C(=O)CN(C)C(c1cccc(F)c1)c1ccccn1)C1CC1` (centres undefined) | 30.51 | -9.061 |
| `CCc1cc(N2CCC(NCCc3ccc(C)o3)CC2)nc(C)n1` | 23.78 | -7.362 |
| `O=C(O)C(F)(F)F.[H][C@@]12CN(C(=O)NC(C)C)C[C@]1([H])C(=O)N(Cc1cccc(C)n1)C2` | -8.453 | -3.895 |
| `CS(=O)(=O)NC1CCN(C(=O)c2ccc3ccccc3c2)C1` (centres undefined) | -20.83 | -9.604 and -6.211 |
| `Cc1cc(C)n(CC2CCCN2C(=O)CCCc2ccccn2)n1` (centres undefined) | -9.275 | -5.864 |
| `CCOc1ccc(-c2ccnc(CC)n2)cc1C(=O)O` | 25.19 | 28.92 |
| `Cc1cncc(C(=O)N2CCCC(O)(CN(C)C)CC2)c1` (centres undefined) | -3.205 | -5.986 |
| `CCn1c(C)cc(C(=O)N2CCCC(C(=O)c3nccn3C)C2)c1C` (centres undefined) | 13.29 | -1.848 |
| `CN(Cc1cnn(C)c1)C(=O)CN1CCCC(Cn2cncn2)C1` (centres undefined) | -47.55 | -45.77 |
| `Cc1nsc(NC(=O)NC2(CN3CCOCC3)CCCC2)n1` | -13.4 | -9.296 |
| `O=S(=O)(N1CCOCC1)N1CCCCC1CCc1ccc(O)cc1` (centres undefined) | -23.38 and 13.84 | -23.66 |
| `CS(=O)(=O)c1cccc(S(=O)(=O)NC(=O)CC2CCCC2)c1` | 13.32 | 7.792 |
| `CSCC(=O)Nc1ncc(I)cc1C` | -21.38 | -31.16 |
| `O=C(Nc1cccn(Cc2ccc(F)cc2)c1=O)c1cnc[nH]1` | -6.401 | -14.8 |
| `CCn1nc(C)c2nc(C(C)C)nc(NCCCn3cccn3)c21` | 4.632 | 14.33 |
| `Cc1cnn(C2CN(CC(=O)N(C)Cc3cccs3)C2)c1` | -2.293 | 7.262 |
| `O=C(NCc1ccccn1)c1cc2n(n1)CCNC2` | 23.99 | -0.06583 |
| `Cc1nnc(CN(C)CCCOc2cccc(Cl)c2)o1` | 0.34 | 7.366 |
| `OC(CN1CC(n2cccn2)C1)c1ccc2c(c1)OCCO2` (centres undefined) | 1.882 | 10.12 |
| `CC(C)NC1CCN(CCc2ccc3c(c2)CCO3)CC1` | 14.25 and 5.451 | 16.19 |
| `Cc1cccc(-n2cnc(Cl)c2C(=O)O)c1` | -7.074 | -17.99 |
| `CC(C)(O)CCc1cccc(C(=O)NCCC2CCOC2)c1` (centres undefined) | 13.11 | -4.94 |

Some entries from above, unchanged:

| compound | Mtb glucose medium | Mtb cholesterol medium |
|---|---|---|
| `Cc1noc(C)c1C(=O)N1CCCCC1c1cc(C)n2ccnc2n1` (centres undefined) | -7.315 | -3.578 |
| `O=C(C1CCS(=O)(=O)C1)N1CCC(=Cc2cccc(F)c2)CC1` (centres undefined) | -4.449 and -8.403 | -0.9212 |
| `Cc1cnc(N2CCCC(c3ccccc3)C2)nc1-c1ncnn1C` (centres undefined) | 17.76 | 47.91 and 11.89 |
| `CCCc1noc(CN2CCC(C(=O)Nc3cnn(CC)c3)CC2)n1` | 6.439 | 3.241 |
| `Cc1cc(C)n(CC2CCCN2C(=O)CCCc2ccccn2)n1` (centres undefined) | -9.275 | -5.864 |